From patent publication US20140039042
The exact form of at least one protein or probe is not confirmed.

By UniProt entry, the sequences of proteins in these tests, tags left out. Residues count along the entry.
UniProt P08581, 25-932: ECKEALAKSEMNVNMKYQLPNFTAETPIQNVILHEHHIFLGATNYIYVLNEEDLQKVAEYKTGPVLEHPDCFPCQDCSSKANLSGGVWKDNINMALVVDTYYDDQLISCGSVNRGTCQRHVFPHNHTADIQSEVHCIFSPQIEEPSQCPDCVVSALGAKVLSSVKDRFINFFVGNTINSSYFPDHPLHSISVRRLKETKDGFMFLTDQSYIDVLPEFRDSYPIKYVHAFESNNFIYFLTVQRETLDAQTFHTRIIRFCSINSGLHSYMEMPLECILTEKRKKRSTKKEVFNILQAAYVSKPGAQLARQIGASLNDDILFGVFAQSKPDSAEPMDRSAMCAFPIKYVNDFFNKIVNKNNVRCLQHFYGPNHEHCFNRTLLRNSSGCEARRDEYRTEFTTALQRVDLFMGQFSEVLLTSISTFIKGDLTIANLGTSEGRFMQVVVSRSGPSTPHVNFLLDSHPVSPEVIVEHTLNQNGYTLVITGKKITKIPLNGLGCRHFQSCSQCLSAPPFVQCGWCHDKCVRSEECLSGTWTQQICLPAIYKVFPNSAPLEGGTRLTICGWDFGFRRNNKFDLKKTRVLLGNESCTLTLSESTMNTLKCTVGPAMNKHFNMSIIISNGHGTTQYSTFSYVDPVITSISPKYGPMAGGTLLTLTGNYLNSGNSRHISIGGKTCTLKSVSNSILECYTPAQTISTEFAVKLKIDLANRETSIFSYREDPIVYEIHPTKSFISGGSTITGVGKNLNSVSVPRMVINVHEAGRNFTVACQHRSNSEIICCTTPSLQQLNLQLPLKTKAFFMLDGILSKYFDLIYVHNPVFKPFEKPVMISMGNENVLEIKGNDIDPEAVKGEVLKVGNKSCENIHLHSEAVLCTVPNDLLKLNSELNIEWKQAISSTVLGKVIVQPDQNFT
UniProt P08637, 17-208: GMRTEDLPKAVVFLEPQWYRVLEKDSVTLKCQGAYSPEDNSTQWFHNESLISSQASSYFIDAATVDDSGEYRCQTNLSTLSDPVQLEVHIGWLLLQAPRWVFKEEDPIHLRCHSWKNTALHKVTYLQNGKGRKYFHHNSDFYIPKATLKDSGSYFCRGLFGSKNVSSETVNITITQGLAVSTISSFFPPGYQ

target: c-Met Fc fusion (UniProt P08581); test: SELEX; conditions: listed as binding specifically to c-Met; did not meet low nM criterion; purified recombinant protein; protein details: Fc-His fusion; single-stranded DNA

Selection result, selected:
GGAGGGAAAAGTTATCAGGCAAAGGAGAAGGCTCAAAACGGCCTGGGTGGTGGGTATGTGGATTAGTTTTGGAGTACTCGCTCC [CLN0005]
GGAGGGAAAAGTTATCAGGCAAAGGAGAAGGTCCAAAACGGCCTGGGTGGTGGGTATGTGGATTAGTTTTGGAGTACTCGCTCC [CLN0002]
GGAGGGAAAAGTTATCAGGCAAGGCGTGTGTATCCCTGTGGTAGGGGTTGGTCGGGGTGGGATTAGTTTTGGAGTACTCGCTCC [CLN0012]
GGAGGGAAAAGTTATCAGGCAGCAAACAGCAGGTAGAGGGAAGTGGCAGATCGGGGTGGGGATTAGTTTTGGAGTACTCGCTCC [CLN0007]
GGAGGGAAAAGTTATCAGGCCAGGGTCGGGATTGGGCGGGGTCTGGAAGATCATGTGCCAGATTAGTTTTGGAGTACTCGCTCC [CLN0013]

target: CD16α (FcγRIIIa) V158 allotype, CD16α-6His (UniProt P08637); test: SELEX; conditions: cell SELEX; listed as binding specifically to CD16; purified recombinant protein; protein details: 6His; single-stranded DNA

Selection result, selected:
GGAGGGAAAAGTTATCAGGCACGGACTCGCAAAAGGTGGAACAGGAGTGGGCCCCGCGGCGATTAGTTTTGGAGTACTCGCTCC [CLN0118]
GGAGGGAAAAGTTATCAGGCAGGCGCGAGAAATATCGAAACACCGGACGGTCGCGACGCTGATTAGTTTTGGAGTACTCGCTCC [CLN0122]
GGAGGGAAAAGTTATCAGGCAGTGTAGGGAGCGGAGTAGGCAGGCGTAGGTCCTGTGGTGATTAGTTTTGGAGTACTCGCTCC [CLN0125]
GGAGGGAAAAGTTATCAGGCATAGGCAACGGGGATGATAACCAGTTGGGGTGGGACGAGGGATTAGTTTTGGAGTACTCGCTCC [CLN0128]
GGAGGGAAAAGTTATCAGGCCACCCGTCAGGGGTTCGTTGTGAGGAGAGAGGGTTGGGCCGATTAGTTTTGGAGTACTCGCTCC [CLN0120]
GGAGGGAAAAGTTATCAGGCCCGGGAGAATTAGATTAAAACGCGGAACGCCCCGTGCCCGGATTAGTTTTGGAGTACTCGCTCC [CLN0124]
GGAGGGAAAAGTTATCAGGCCGAGTGAAAGAGGCAGGTGTAGGTCCCGTGGAGGTCAGGTGATTAGTTTTGGAGTACTCGCTCC [CLN0121]
GGAGGGAAAAGTTATCAGGCGGCGTTGTCGGGCGCAGGTGTAGGCCTCGTGGTGGTGGGTGATTAGTTTTGGAGTACTCGCTCC [CLN0126]
GGAGGGAAAAGTTATCAGGCGGGGGACAAGGGTCGGGTATGGGCGCCTCGAGAACTGGGTGATTAGTTTTGGAGTACTCGCTCC [CLN0127]
GGAGGGAAAAGTTATCAGGCTGCGGCGAGAAATGTCGAAACGGTGAAACCCGCCATGCGTGATTAGTTTTGGAGTACTCGCTCC [CLN0119]

same assay, conditions: listed as binding specifically to CD16; purified recombinant protein; protein details: 6His; single-stranded DNA

Selection result, selected:
GGAGGGAAAAGTTATCAGGCAACGGGAAGAAATGTCGAAACCCTTGAAAGGTCACGGACTGATTAGTTTTGGAGTACTCGCTCC [CLN0019]
GGAGGGAAAAGTTATCAGGCAGGTGTAGGCCCTGTGGTGATGAATCGCGTGTCGAGGGGTGATTAGTTTTGGAGTACTCGCTCC [CLN0027]
GGAGGGAAAAGTTATCAGGCCAAGCACAAGAACTTTCAAAACGCAGAATGCTGGGCTTGGGATTAGTTTTGGAGTACTCGCTCC [CLN0016]
GGAGGGAAAAGTTATCAGGCCAGAACAAAGCGGGAGAATTATGAAAACGCGGAACGCCACGATTAGTTTTGGAGTACTCGCTCC [CLN0025]
GGAGGGAAAAGTTATCAGGCCAGACGAGAATTTGGAAAACGCGGAACGCCGTCTGGTGTGGATTAGTTTTGGAGTACTCGCTCC [CLN0017]
GGAGGGAAAAGTTATCAGGCCAGCCACTGGAGAAAGTAAGAAACGCAGAATGCCCAGTGGGATTAGTTTTGGAGTACTCGCTCC [CLN0032]
GGAGGGAAAAGTTATCAGGCCGCAGCGGAGAAATTTCGAAACCCAGGATGGCCGCGAGGTGATTAGTTTTGGAGTACTCGCTCC [CLN0028]
GGAGGGAAAAGTTATCAGGCGACGGGACGAAAAACGGTTGGATGAGGTTGGTTGGGTGTGGATTAGTTTTGGAGTACTCGCTCC [CLN0029]
GGAGGGAAAAGTTATCAGGCGACGTTAAGCTAGCAGGTGTTAGGTCCCGTGGTGATGAATGATTAGTTTTGGAGTACTCGCTCC [CLN0023]
GGAGGGAAAAGTTATCAGGCGCAAGTATGAGCGCAGGAGTTAGGTCCCGTGGCGATGGGTGATTAGTTTTGGAGTACTCGCTCC [CLN0021]
GGAGGGAAAAGTTATCAGGCGCTAAGAGAAATATCGAAACCCTGGATAGGCTGAGTGACTGATTAGTTTTGGAGTACTCGCTCC [CLN0026]
GGAGGGAAAAGTTATCAGGCGGCAGAAGAAATATCGAAACCCAGAATGGTCGGCCAGGCGGATTAGTTTTGGAGTACTCGCTCC [CLN0015]
GGAGGGAAAAGTTATCAGGCGGCCAGAGAAATGTCGAAACCCGGTAACGGATGGTAAGCTGATTAGTTTTGGAGTACTCGCTCC [CLN0031]
GGAGGGAAAAGTTATCAGGCGGGAGGAGAATTAATAAAAACCCGGGACGGCCGACGGGATGATTAGTTTTGGAGTACTCGCTCC [CLN0024]
GGAGGGAAAAGTTATCAGGCGTAGGTGGGGGACTGGGGACGGGTATGGGCACACGGTATGATTAGTTTTGGAGTACTCGCTCC [CLN0022]
GGAGGGAAAAGTTATCAGGCTAAACCCCAAAACAGTGCAACTAGGTGTAGGTCCCGTGGTGATTAGTTTTGGAGTACTCGCTCC [CLN0030]

same assay, conditions: mRfY: 2'-OMe purines, 2'-F pyrimidines; mRfY; listed as CD16 specific; purified recombinant protein; protein details: 6His

Selection result, selected:
GGAGGGAAAAGUUAUCAGGCAAUGACAUAUUUCUUAUAUCGGGUUUGGAGUGCCUUGCCUAGAUUAGUUUUGGAGUACUCGCUCC [CLN0072]
GGAGGGAAAAGUUAUCAGGCAAUGACAUUUUCUUAUAUCGGGUUUGGAGUGCCCUGCCUAGAUUAGUUUUGGAGUACUCGCUCC [CLN0076]
GGAGGGAAAAGUUAUCAGGCAUGUAUUGCGGAUGAUUUUGUAUUUAAUGUGUAUGCCUCGGAUUAGUUUUGGAGUACUCGCUCC [CLN0077]

same assay, conditions: rRfY: 2'-OH purines, 2'-F pyrimidines; purified recombinant protein; protein details: 6His

Selection result, selected:
GGAGGGAAAAGUUAUCAGGCACGUAGUGGGAGGACGCGGAAAGUCGAGCGCAUUAGGUGGGAUUAGUUUUGGAGUACUCGCUCC [CLN0059]
GGAGGGAAAAGUUAUCAGGCACGUAGUUGAAGGACUUUUGGGUUGAGCGGACUAGGUGUAGAUUAGUUUUGGAGUACUCGCUCC [CLN0063]
GGAGGGAAAAGUUAUCAGGCAGUGAGAGGUUAAAGGAAGGGUGCGUUGUCAAAGGCUGGUGAUUAGUUUUGGAGUACUCGCUCC [CLN0048]
GGAGGGAAAAGUUAUCAGGCAUAGAGGUGAGAGGAAGGGUGUGUUGUAUGUUGAUAACGAGAUUAGUUUUGGAGUACUCGCUCC [CLN0057]
GGAGGGAAAAGUUAUCAGGCCAGAGAAACAUAAACCAUAAACGCAGAAGCUGGCUGUGAGGAUUAGUUUUGGAGUACUCGCUCC [CLN0061]
GGAGGGAAAAGUUAUCAGGCCCGGCUUCGAAGGGUGAAUACUGAGCGGAAGUGAGAGGAAGAUUAGUUUUGGAGUACUCGCUCC [CLN0051]
GGAGGGAAAAGUUAUCAGGCCUAGUGUUAUGACCCUAGAAAUAGAUGAGUUGAGAGGUCGGAUUAGUUUUGGAGUACUCGCUCC [CLN0054]
GGAGGGAAAAGUUAUCAGGCGCAAGGAGGUAAAAGGAAGGGUGGUUGCUUGGCGCUAACGGAUUAGUUUUGGAGUACUCGCUCC [CLN0052]
GGAGGGAAAAGUUAUCAGGCGCAUGUGAAGGGACCAAUCCGAGCGACAUGGUGCGGGAUAGAUUAGUUUUGGAGUACUCGCUCC [CLN0055]
GGAGGGAAAAGUUAUCAGGCGCGGUGGAAGGCUGAACAUUGGCGAGCGCAUCGGAGAUCUGAUUAGUUUUGGAGUACUCGCUCC [CLN0060]
GGAGGGAAAAGUUAUCAGGCGUAAGCGAAGGGUCAAAAAGGCCGAGCGGUUUAGGCAUCAGAUUAGUUUUGGAGUACUCGCUCC [CLN0049]
GGAGGGAAAAGUUAUCAGGCGUAAUGGAAGGGCGUUAUGAACGCUGAGCGCAUUAGGGGUGAUUAGUUUUGGAGUACUCGCUCC [CLN0053]
GGAGGGAAAAGUUAUCAGGCGUUCUUGUAGUGCAUCCAAUUGCAGAGCGAAGGAGGUGUUGAUUAGUUUUGGAGUACUCGCUCC [CLN0062]
GGAGGGAAAAGUUAUCAGGCUAAACCCCAAAACAGUGCAACUAGGUGUAGGUCCCGUGGUGAUUAGUUUUGGAGUACUCGCUCC [CLN0050]
GGAGGGAAAAGUUAUCAGGCUAUGGAAGGGAUAGGGUAUCCGAGCGCAGAGGCUGAGGAUUAGUUUUGGAGUACUCGCUCC [CLN0056]
GGAGGGAAAAGUUAUCAGGCUCACGAAGUCAGCAAUAAUUUGCUGUAGGCGGUGGGGACUGAUUAGUUUUGGAGUACUCGCUCC [CLN0058]
GGAGGGAAAAGUUAUCAGGCUGCGGAAGGUAGGUUAUACGAGCGCGCAGGACUGGUAAUAGAUUAGUUUUGGAGUACUCGCUCC [CLN0047]
